# Data published in the supplement of paper PMC4604168 (melanoma cell lines).
# Some of the results follow. Single values are uncertain, as repeats are few or missing.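 Cells were imaged in 1,536-well plates, and nuclei stained with an antibody against cleaved PARP were counted against all DNA-stained nuclei to give the apoptosis fraction. Screening doses were chosen to leave most cells alive, and resting and induced cleaved-PARP levels differ strongly between cell lines.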
# How the values were obtained:
# Assay in all cases: cleaved PARP positive nuclei fraction relative to DMSO control; melanoma cells; higher = more apoptosis
# Conditions in all cases: library dose: low library concentration; 72 h
# 501Mel = test system: 501Mel
# A101D = test system: A101D
# A2058 = test system: A2058
# A375 = test system: A375
# C32 = test system: C32
# CBRC013 = test system: CBRC013 (line from a melanoma biopsy)
# CBRC014 = test system: CBRC014 (line from a melanoma biopsy)
# CBRC016 = test system: CBRC016 (line from a melanoma biopsy)
# CBRC017 = test system: CBRC017 (line from a melanoma biopsy)
SMILES,cleaved PARP positive nuclei fraction (501Mel) [%],cleaved PARP positive nuclei fraction (A101D) [%],cleaved PARP positive nuclei fraction (A2058) [%],cleaved PARP positive nuclei fraction (A375) [%],cleaved PARP positive nuclei fraction (C32) [%],cleaved PARP positive nuclei fraction (CBRC013) [%],cleaved PARP positive nuclei fraction (CBRC014) [%],cleaved PARP positive nuclei fraction (CBRC016) [%],cleaved PARP positive nuclei fraction (CBRC017) [%]
"COc1cc2ncnc(Nc3ccc(Oc4ccccc4)cc3)c2cc1OC + Oc1nc(-c2ccc(C(F)(F)F)cc2)nc2c1CSCC2 [XAV939] (first compound 2 µM, partner dose 2 µM)",73.6,64.5,68.2,28.7,85.1,61.6,87.4,54.3,90.6
"O=C(O)C(=O)Nc1sc2c(c1C(=O)O)CCNC2 + O=c1cc(-c2cccc3c2Sc2ccccc2S3)oc(N2CCOCC2)c1 [KU55933] (first compound 1.66667 µM, partner dose 1 µM)",113,54.3,63.2,315,132,76,78.4,56.3,63.8
"COc1cc(N2CCC(N3CCN(C)CC3)CC2)ccc1Nc1ncc(Cl)c(Nc2ccccc2S(=O)(=O)C(C)C)n1 + O=c1cc(-c2cccc3c2Sc2ccccc2S3)oc(N2CCOCC2)c1 [KU55933] (first compound 0.08 µM, partner dose 1 µM)",128,110,150,82.2,185,559,105,71.8,91.7
"COC(=O)c1sccc1S(=O)(=O)Nc1ccc(Nc2ccccc2)cc1OC + Oc1nc(-c2ccc(C(F)(F)F)cc2)nc2c1CSCC2 [XAV939] (first compound 1 µM, partner dose 2 µM)",41.6,195,76,161,35.4,67.5,162,32.1,91.8
"O=C(O)c1ccc(-c2c[nH]c3ncc(-c4ccccc4)cc23)cc1C1CCCC1 + c1cc(-c2cnn3cc(-c4ccc(OCCN5CCCCC5)cc4)cnc23)ccn1 [Dorsomorphin] (first compound 0.16 µM, partner dose 0.4 µM)",44.2,52.9,101,104,79.5,66.9,97.3,72.9,93.9
"CN(C)S(=O)(=O)c1ccc2c(c1)/C(=C/c1cc3c([nH]1)CCCC3)C(=O)N2 + COc1ccc2c(c1)CCC1C2CCC2(C)C(NCCCCCCN3C(=O)C=CC3=O)CCC12 [U73122] (first compound 0.4 µM, partner dose 0.4 µM)",91.9,66.5,59.6,46.1,72.5,49,112,72.6,96.2
"O=C(O)c1ccc(-c2c[nH]c3ncc(-c4ccccc4)cc23)cc1C1CCCC1 + CCCCCCCCCCCC1=C(O)C(=O)C=C(O)C1=O [Embelin] (first compound 0.16 µM, partner dose 1.2 µM)",225,104,119,177,83,220,96.4,110,94.1
"CCc1ccc(CCOc2ccc(CC3SC(=O)NC3=O)cc2)nc1 (stereo unspecified) [pioglitazone] + CCCCCCCCCCCC1=C(O)C(=O)C=C(O)C1=O [Embelin] (first compound 2 µM, partner dose 1.2 µM)",49.9,101,66.4,93.3,59.9,132,90,53.9,96.5
"NCC(=O)Nc1ccc(-n2nc(C(F)(F)F)cc2-c2ccc3c(ccc4ccccc43)c2)cc1 + O=C1NC(=O)/C(=C/c2ccc(-c3ccc(F)cc3O)o2)S1 [AS252424] (first compound 1 µM, partner dose 1 µM)",369,98.8,33.5,3690,145,561,77,71.2,136
"O=S(=O)(c1ccccc1)N(CC(F)(F)F)c1ccc(C(O)(C(F)(F)F)C(F)(F)F)cc1 + O=c1cc(-c2cccc3c2Sc2ccccc2S3)oc(N2CCOCC2)c1 [KU55933] (first compound 1.4 µM, partner dose 1 µM)",140,154,35.1,121,73.5,26.8,80.5,67.3,78
"CCc1ccc(CCOc2ccc(CC3SC(=O)NC3=O)cc2)nc1 (stereo unspecified) [pioglitazone] + COc1ccc(-c2ccc3c(N4CCOCC4)nc(N4C[C@@H](C)O[C@@H](C)C4)nc3n2)cc1CO [KU0063794] (first compound 2 µM, partner dose 0.02 µM)",47.2,54.2,52.8,59.1,34.6,104,105,108,81
"N#Cc1c(O)c2c(-c3ccc(-c4ccccc4O)cc3)csc2[nH]c1=O + COc1cc2ncnc(Nc3ccc(Oc4ccccc4)cc3)c2cc1OC [SrcI1] (first compound 2 µM, partner dose 2 µM)",189,92.9,39.2,40.5,87.1,605,98.9,91.3,73.7
"CN(NC(=O)CC(=O)NN(C)C(=S)c1ccccc1)C(=S)c1ccccc1 + CCN(CC)CCCCNc1ncc2cc(-c3cc(OC)cc(OC)c3)c(NC(=O)NC(C)(C)C)nc2n1 [PD173074] (first compound 0.006 µM, partner dose 0.1 µM)",151,234,236,6170,105,209,756,151,166
"N#Cc1c(O)c2c(-c3ccc(-c4ccccc4O)cc3)csc2[nH]c1=O + CC(C)CCN1c2nc(Nc3cc(F)c(O)c(F)c3)ncc2N(C)C(=O)C1C [BID1870] (first compound 2 µM, partner dose 0.2 µM)",42.3,125,171,178,227,41,110,66.9,85
"O=S(=O)(c1ccccc1)N(CC(F)(F)F)c1ccc(C(O)(C(F)(F)F)C(F)(F)F)cc1 + Oc1nc(-c2ccc(C(F)(F)F)cc2)nc2c1CSCC2 [XAV939] (first compound 1.4 µM, partner dose 2 µM)",21.9,54.8,33.8,123,138,298,94.2,17.8,135
"O=S(=O)(c1ccccc1)N(CC(F)(F)F)c1ccc(C(O)(C(F)(F)F)C(F)(F)F)cc1 + O=C1NC(=O)/C(=C/c2ccc(-c3ccc(F)cc3O)o2)S1 [AS252424] (first compound 1.4 µM, partner dose 1 µM)",96,78.4,42.3,209,71.6,23,114,67.7,182
"O=C(O)c1ccc(-c2c[nH]c3ncc(-c4ccccc4)cc23)cc1C1CCCC1 + O=C(Nc1ccccc1)c1cc([N+](=O)[O-])ccc1Cl [GW9662] (first compound 0.16 µM, partner dose 2 µM)",127,67.6,117,77.3,83.9,54.7,93.6,99.4,93.4
"c1cc(-c2cnn3cc(-c4ccc(OCCN5CCCCC5)cc4)cnc23)ccn1 [Dorsomorphin] + CC(C)CCN1c2nc(Nc3cc(F)c(O)c(F)c3)ncc2N(C)C(=O)C1C [BID1870] (first compound 0.4 µM, partner dose 0.2 µM)",92.2,43.7,145,133,97.7,264,108,23.7,207
"O=C(O)c1ccc(-c2c[nH]c3ncc(-c4ccccc4)cc23)cc1C1CCCC1 + O=C(O)C(=O)Nc1sc2c(c1C(=O)O)CCNC2 [TCS401] (first compound 0.16 µM, partner dose 1.66667 µM)",100,148,69.5,205,134,188,85.8,115,73.1
"O=C(Nc1ccccc1)c1cc([N+](=O)[O-])ccc1Cl + COc1cc(N2CCC(N3CCN(C)CC3)CC2)ccc1Nc1ncc(Cl)c(Nc2ccccc2S(=O)(=O)C(C)C)n1 [NVP-TAE684] (first compound 2 µM, partner dose 0.08 µM)",86.5,37.2,81.2,81.1,206,623,112,155,90.3
"O=C(Nc1ccccc1)c1cc([N+](=O)[O-])ccc1Cl + Oc1nc(-c2ccc(C(F)(F)F)cc2)nc2c1CSCC2 [XAV939] (first compound 2 µM, partner dose 2 µM)",75.9,297,115,85,165,619,114,34.9,69.7
"COc1cc2c(Oc3ccc4[nH]c(C)cc4c3F)ncnc2cc1OCCCN1CCCC1 [cediranib] + COc1ccc2c(c1)CCC1C2CCC2(C)C(NCCCCCCN3C(=O)C=CC3=O)CCC12 [U73122] (first compound 0.4 µM, partner dose 0.4 µM)",87.9,45,61.7,86.4,43.9,154,142,43.7,95.9
"N#Cc1c(O)c2c(-c3ccc(-c4ccccc4O)cc3)csc2[nH]c1=O + CCCCCCCCCCCC1=C(O)C(=O)C=C(O)C1=O [Embelin] (first compound 2 µM, partner dose 1.2 µM)",141,95.6,67.5,112,109,44.6,95.3,55.7,74.7
"O=C(O)c1ccc(-c2c[nH]c3ncc(-c4ccccc4)cc23)cc1C1CCCC1 + COC(=O)c1sccc1S(=O)(=O)Nc1ccc(Nc2ccccc2)cc1OC [GSK0660] (first compound 0.16 µM, partner dose 1 µM)",74.7,87.4,45.5,148,38.4,41.9,126,371,107

# Reformatted with bars between the fields: part of the list above.
SMILES | cleaved PARP positive nuclei fraction (501Mel) [%] | cleaved PARP positive nuclei fraction (A101D) [%] | cleaved PARP positive nuclei fraction (A2058) [%] | cleaved PARP positive nuclei fraction (A375) [%] | cleaved PARP positive nuclei fraction (C32) [%] | cleaved PARP positive nuclei fraction (CBRC013) [%] | cleaved PARP positive nuclei fraction (CBRC014) [%] | cleaved PARP positive nuclei fraction (CBRC016) [%] | cleaved PARP positive nuclei fraction (CBRC017) [%]
O=C(O)c1ccc(-c2c[nH]c3ncc(-c4ccccc4)cc23)cc1C1CCCC1 + c1cc(-c2cnn3cc(-c4ccc(OCCN5CCCCC5)cc4)cnc23)ccn1 [Dorsomorphin] (first compound 0.16 µM, partner dose 0.4 µM) | 44.2 | 52.9 | 101 | 104 | 79.5 | 66.9 | 97.3 | 72.9 | 93.9
CN(C)S(=O)(=O)c1ccc2c(c1)/C(=C/c1cc3c([nH]1)CCCC3)C(=O)N2 + COc1ccc2c(c1)CCC1C2CCC2(C)C(NCCCCCCN3C(=O)C=CC3=O)CCC12 [U73122] (first compound 0.4 µM, partner dose 0.4 µM) | 91.9 | 66.5 | 59.6 | 46.1 | 72.5 | 49 | 112 | 72.6 | 96.2
